These are yes or no findings as the source states them, for the method shown. Binding seen in cells or lysates may run through a third protein. Some results given as binding are weak or reduced against the parent protein; the word gives no strength. Where a sequence is shown, tags or fusion partners need not be part of it.

By UniProt entry, the sequences of proteins in these tests, tags left out.
UniProt P10275: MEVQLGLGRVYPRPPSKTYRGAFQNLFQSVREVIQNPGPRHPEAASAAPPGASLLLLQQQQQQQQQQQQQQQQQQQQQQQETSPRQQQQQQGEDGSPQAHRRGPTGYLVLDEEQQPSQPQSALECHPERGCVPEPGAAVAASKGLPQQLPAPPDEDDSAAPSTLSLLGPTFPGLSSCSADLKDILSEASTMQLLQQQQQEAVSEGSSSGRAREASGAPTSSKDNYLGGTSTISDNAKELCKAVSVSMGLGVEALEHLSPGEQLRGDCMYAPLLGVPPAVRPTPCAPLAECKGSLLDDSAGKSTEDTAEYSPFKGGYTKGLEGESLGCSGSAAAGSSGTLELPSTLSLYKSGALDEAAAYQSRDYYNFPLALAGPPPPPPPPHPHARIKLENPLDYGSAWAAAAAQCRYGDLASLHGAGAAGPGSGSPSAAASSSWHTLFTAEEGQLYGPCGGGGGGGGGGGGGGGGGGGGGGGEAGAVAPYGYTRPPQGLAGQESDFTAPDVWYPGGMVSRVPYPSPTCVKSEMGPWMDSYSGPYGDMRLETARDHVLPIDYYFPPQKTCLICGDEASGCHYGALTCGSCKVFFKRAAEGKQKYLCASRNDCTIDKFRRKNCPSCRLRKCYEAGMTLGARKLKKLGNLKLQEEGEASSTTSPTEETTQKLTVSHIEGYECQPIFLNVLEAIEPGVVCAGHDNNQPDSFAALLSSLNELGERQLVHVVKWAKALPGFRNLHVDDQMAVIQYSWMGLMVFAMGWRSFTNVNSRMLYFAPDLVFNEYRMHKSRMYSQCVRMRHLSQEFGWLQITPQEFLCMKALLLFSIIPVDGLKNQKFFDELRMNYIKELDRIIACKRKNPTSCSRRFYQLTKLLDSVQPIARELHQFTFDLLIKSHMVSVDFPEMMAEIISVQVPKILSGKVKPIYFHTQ

This test addresses T1, Flag-USP3 (UniProt Q9Y6I4).
T1 sequence: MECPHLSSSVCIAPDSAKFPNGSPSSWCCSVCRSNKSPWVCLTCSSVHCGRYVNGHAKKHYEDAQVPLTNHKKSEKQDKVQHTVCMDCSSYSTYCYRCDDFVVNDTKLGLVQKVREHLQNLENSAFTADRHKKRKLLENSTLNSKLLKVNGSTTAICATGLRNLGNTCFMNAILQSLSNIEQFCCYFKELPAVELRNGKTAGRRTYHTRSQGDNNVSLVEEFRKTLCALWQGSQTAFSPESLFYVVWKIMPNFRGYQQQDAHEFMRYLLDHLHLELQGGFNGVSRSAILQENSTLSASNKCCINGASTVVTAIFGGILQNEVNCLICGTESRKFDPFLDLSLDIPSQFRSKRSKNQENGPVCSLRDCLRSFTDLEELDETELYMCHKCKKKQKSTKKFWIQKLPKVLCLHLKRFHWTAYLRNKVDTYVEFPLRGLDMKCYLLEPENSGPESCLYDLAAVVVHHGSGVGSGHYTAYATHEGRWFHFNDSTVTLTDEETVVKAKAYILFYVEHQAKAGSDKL
Description: co-IP; Flag-USP3 transfected into LoVo-OxR cells overexpressing the lncRNA AC092894.1 and into control vector cells; precipitating antibody and buffer not stated.

Regarding “androgen receptor (from UniProt P10275 1-920)”, the binding entry is listed as “binds”.

Values taken from publication PMC10071743.
